Substitutions are numbered along the chain they refer to. Results are given in words; binding and its absence hold for the method and conditions named. Some entries that bind do so weakly or less than the wild type. For some assays here: Tags and fused reporters may be left off the sequences shown.

Seven molecules from patent US20110223107A1 can be followed below.

In assay [1] the target is T1, KAAG1 (Kidney associated antigen 1), endogenous, on cancer cells and in tumour tissue (human) (UniProt Q9UBP8).
T1 sequence: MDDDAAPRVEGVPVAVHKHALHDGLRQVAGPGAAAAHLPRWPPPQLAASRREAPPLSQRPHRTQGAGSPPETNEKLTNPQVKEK
Kind of assay: cell-based ELISA on fixed, non-permeabilised TOV-21G cells.

Assay [2] concerns the target T1, KAAG1 (Kidney associated antigen 1), endogenous, on cancer cells and in tumour tissue (human). Kind of assay: cell-based ELISA on fixed, non-permeabilised OV-90 cells. On the technique in general: ELISA stands for enzyme-linked immunosorbent assay.
Assay [3] shares this target. Kind of assay: cell-based ELISA on non-permeabilised fixed cells; signal on SKOV-3 only, not on OV-90 or TOV-21G.
Assay [4] shares this target. Put plainly: cell-based ELISA on fixed, non-permeabilised SKOV-3 cells.
Assay [5] has the same target. Kind of assay: cell-based ELISA on non-permeabilised fixed OV-90, TOV-21G and SKOV-3 cells, HRP anti-human IgG detection.
Assay [6] has as its target T2, Fc-fused truncated mutant of KAAG1 spanning amino acids 1-35 (human).
T2 sequence: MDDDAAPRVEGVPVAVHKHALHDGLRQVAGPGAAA
Put plainly: ELISA on Fc-fused truncated KAAG1.

Assay [7] deals with recombinant Fc-KAAG1 fusion protein (full-length KAAG1) (human) (UniProt Q9UBP8). Put plainly: ELISA on biotinylated Fc-KAAG1.
Assay [8] addresses T1, KAAG1 (Kidney associated antigen 1), endogenous, on cancer cells and in tumour tissue (human). Put plainly: immunohistochemistry on paraffin-embedded ovarian tumour tissue microarrays, biotin anti-kappa and streptavidin-HRP detection.
Assay [9] shares this target. Put plainly: immunohistochemistry on an ovarian tumour tissue microarray (FIG. 8A legend).
The target is the same in assay [10]. Put plainly: flow cytometry on SKOV-3 cells, anti-mouse IgG-FITC. In general terms: Flow cytometry measures light scatter and fluorescence of single cells or particles in a stream.
For assay [11] the target is unchanged. Kind of assay: flow cytometry on SKOV-3 cells at saturating conditions, FITC anti-mouse IgG detection.

B1: 3G10 mouse-human chimeric IgG1 anti-KAAG1 monoclonal antibody (antibody, V domains shown)
VH: EIQLQQSGPELVKPGASVKISCKASGYTFTDNYMNWVKQSHGKSLEWIGDINPYYGTTTYNQKFKGKATLTVDKSSRTAYMELRGLTSEDSAVYYCARDDWFDYWGQGTLVTVSA
VL: DVLMTQTPRSLSVSLGDQASISCRSSQSLLHSNGNTYLEWYLQKPGQPPKVLIYKVSNRFSGVPDRFSGSGSGTDFTLKISGVEAEDLGVYYCFQGSHVPLTFGAGTKLELKA
Regarding B1, the binding result in assay [1], in assay [2], in assay [3] and in assay [4] was “binds” throughout.

B2: 3C4 mouse-human chimeric IgG1 anti-KAAG1 monoclonal antibody (antibody, V domains shown)
VH: EVQLQESGPDLVKPSQSLSLTCTVTGFSITSGYGWHWIRQFPGNKLEWMGYINYDGHNDYNPSLKSRISITQDTSKNQFFLQLNSVTTEDTATYYCASSYDGLFAYWGQGTLVTVSA
VL: DIVMSQSPSSMYASLGERVTITCKASQDIHNFLNWFQQKPGKSPKTLIFRANRLVDGVPSRFSGSGSGQDYSLTISSLEFEDLGIYSCLQYDEIPLTFGAGTKLELRA
Turning to B2, the binding entry in [1], in [2], in assay [5] and in assay [4] was “binds” each time.

B3: Fab of well C2 (Omniclonal AL0003Z1 plate) (Fab, V domains shown)
VH: B2 VH with E1D, N53S, Y54F, D55N, H57D, N58S, D59N, Q72R, T88S, T111P
VL: DIQMTQSPSSMYASLGERVTLTCKASQDIHNYLNWFQQKPGKSPKTLIHRANRLVAGVPSRFSGSGSGQDYSLTISSLEYEDLGIYYCLQYDAFPLTFGAGTKLELK
Regarding B3, the binding result in [6] and in assay [7] was “binds” each time.

B4: Fab of well D1 (Omniclonal AL0003Z1 plate) (Fab, V domains shown)
VH: B2 VH with N44D, N53S, Y54F, D55N, H57D, N58Y, D59N, Q72R, N84S
VL: B3 VL with Q3K, L21I, N31T, K45E, H49Y, A56D, L83M, A93E
On to B4, for which the binding result in [6] and in assay [7] was “binds” each time.

B5: 3D3 mouse-human chimeric IgG1 anti-KAAG1 monoclonal antibody (antibody, V domains shown)
VH: EVQLQQSVAELVRPGASVTLSCKASGYIFTDYEIHWVKQTPVHGLEWIGVIDPETGNTAFNQKFKGKATLTADISSSTAYMELSSLTSEDSAVYYCMGYSDYWGQGTTLTVSS
VL: DIVMTQSPSSLAVSIGQKVTMNCKSSQSLLNSNFQKNFLAWYQQKPGQSPKLLIYFASTRESSIPDRFIGSGSGTDFTLTISSVQAEDLADYFCQQHYSTPLTFGAGTKLELKA
Turning to B5, the binding result in assay [1], in assay [2], in [5] and in assay [4] was “binds” throughout.

B6: anti-KAAG1 3D3 (primary mAb of the immunohistochemistry) (antibody, V domains shown)
VH: B5 VH
VL: DIVMTQSPSSLAVSIGQKVTMNCKSSQSLLNSNFQKNFLAWYQQKPGQSPKLLIYFASTRESSIPDRFIGSGSGTDFTLTISSVQAEDLADYFCQQHYSTPLTFGAGTKLELK
Turning to B6, the binding entry in [8] and in [9] was “binds” throughout.

B7: mouse 3D3 anti-KAAG1 antibody (antibody, V domains shown)
VH: B5 VH
VL: B6 VL
For the molecule B7, the binding result in assay [10] and in assay [11] was “binds” each time.
